# In US20110008369A1:
# Amino acid sequences for entries named in this document (tags omitted). A change or cut given only in a name is not applied to a line headed by its entry.
# UniProt Q15116: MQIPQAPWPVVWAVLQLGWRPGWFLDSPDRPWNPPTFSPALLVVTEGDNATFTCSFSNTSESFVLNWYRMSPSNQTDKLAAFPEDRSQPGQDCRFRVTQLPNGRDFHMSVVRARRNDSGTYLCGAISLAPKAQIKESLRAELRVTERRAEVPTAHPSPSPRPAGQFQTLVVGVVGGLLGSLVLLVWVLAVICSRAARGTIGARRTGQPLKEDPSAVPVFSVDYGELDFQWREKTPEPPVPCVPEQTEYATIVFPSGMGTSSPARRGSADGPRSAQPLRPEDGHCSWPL
# Results are given in words; binding and its absence hold for the method and conditions named. Some entries that bind do so weakly or less than the wild type.
# B1: mAb 1.8A10 (antibody, V domains shown)
# VH: EVQLVESGGGLVKPGGSLKLSCAASGFTFSNYDMSWIRQTPEKRLEWVAYISGGGGNTYYPDTLKGRFTISRDNAKNTLYLQMSSLKSEDTAMFYCVRISLTGIFDYWGQGTTLTVSS
# VL: DVLMTQTPLSLPVSLGDQASISCRSSQSIVQSNGNTYLEWYLQKPGQSPKLLIYKVSNRFSGVPDRFSGSGSGTDFTLKISRVEAEDLGVYYCFQGSHVPWTFGGGTKLEIKR
# Target: human PD-1 (Programmed Cell Death 1), expressed on cells (human) (UniProt Q15116)
# Assay: cell binding to activated human CD4+ cells
binder,measurement,value
B1,binding,binds
